# Values from PubChem BioAssay AID652243 (Drosophila RNAi Screening Center, 2013)
# Test: 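Knock-downs that decrease or increase androgen receptor reporter signal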 (primary screen)
# Cells: Drosophila S2R+ cells
# Knock-down reagent: long dsRNA against Drosophila genes
# Timing: 72 h (48 h, then 24 h hormone)
# Conditions: synthetic androgen R1881 at 10 nM for 24 h
# Detection: 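Per-well raw luminescence of the androgen-driven firefly reporter and of the Renilla control, two replicates each, without normalisation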
# Reading the numbers: firefly reporter light: higher = more light from androgen-responsive reporter; Renilla control light: higher = more constitutive control signal (cell number, transfection)
# Hit rule: 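Across duplicate plates, a knock-down whose log firefly/Renilla ratio shifted a set fold down or up from the GFP/LacZ control mean was a hit; the downward cut appears as both 1.5 and 3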
# Calls: active = hit: reporter lowered or raised; inactive = no hit
# The deposit covers about 24,000 reagents; shown is an unselected part of those with a known target gene and a result. In the full data, 246 (1%) are marked active. 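Plates not normalised; calls are printed but the firefly/Renilla ratio behind them is not deposited; fold cut for lowering reported inconsistently.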 Raw values are not corrected between plates. Reagent sequences are not shown. Not given: the amount of reagent.
Gene,DRSC id,"firefly reporter light, replicate 1","firefly reporter light, replicate 2","Renilla control light, replicate 1","Renilla control light, replicate 2",Outcome
CG15701 (GeneID 36801),DRSC06572,26982,49139,6.27e5,6.27e5,inactive
Hacd1 (GeneID 34614),DRSC02988,6.15e5,8.32e5,1.26e6,1.51e6,inactive
CG13516 (GeneID 3885599),DRSC04159,4.02e5,3.10e5,2.32e6,1.59e6,inactive
Bka (GeneID 46032),DRSC02757,1.86e5,1.82e5,1.04e6,1.52e6,inactive
Sply (GeneID 46059),DRSC07299,4.60e5,3.79e5,2.17e6,2.48e6,inactive
Sply (GeneID 46059),DRSC27378,3.05e5,2.85e5,4.95e5,6.00e5,inactive
CG12851 (GeneID 37993),DRSC04131,2.89e5,2.17e5,1.39e6,1.46e6,inactive
CG15221 (GeneID 32127),DRSC19659,4.84e5,4.38e5,4.78e6,4.35e6,inactive
Tie (GeneID 38559),DRSC08104,22328,65495,1.41e5,1.81e5,inactive
Tie (GeneID 38559),DRSC08702,1.01e5,1.29e5,1.89e6,1.90e6,inactive
Tie (GeneID 38559),DRSC36693,,,,,inactive
Tie (GeneID 38559),DRSC36694,,,,,inactive
Sps1 (GeneID 36587),DRSC07549,1.37e6,9.78e5,1.87e6,1.96e6,inactive
AstC-R2 (GeneID 40019),DRSC23467,8.48e5,1.04e6,1.54e6,1.36e6,inactive
CG10029 (GeneID 40883),DRSC12498,66171,50670,9.58e5,1.00e6,inactive
CG10474 (GeneID 37211),DRSC05993,42910,51440,5.68e5,6.35e5,inactive
PMP34 (GeneID 38532),DRSC21939,5.62e5,5.92e5,1.63e6,1.28e6,inactive
CG8664 (GeneID 32719),DRSC20116,4.03e5,2.81e5,2.58e6,2.63e6,inactive
CG33647 (GeneID 3772049),DRSC37823,6.32e5,8.46e5,1.67e6,2.04e6,inactive
djl (GeneID 40839),DRSC12578,30428,50172,1.41e6,1.16e6,inactive
djl (GeneID 40839),DRSC25609,1.79e5,1.30e5,3.11e5,2.84e5,inactive
Gyg (GeneID 37419),DRSC03850,81744,90309,3.60e5,3.55e5,inactive
Gyg (GeneID 37419),DRSC04556,3.61e5,3.81e5,2.96e6,2.37e6,inactive
Gyg (GeneID 37419),DRSC28959,6.89e5,4.60e5,1.35e6,1.44e6,inactive
CG30270 (GeneID 251324),DRSC22890,7.21e5,9.71e5,1.32e6,2.06e6,inactive

A portion from the list above, for reference:
Gene,DRSC id,"firefly reporter light, replicate 1","firefly reporter light, replicate 2","Renilla control light, replicate 1","Renilla control light, replicate 2",Outcome
Tie (GeneID 38559),DRSC08104,22328,65495,1.41e5,1.81e5,inactive
Tie (GeneID 38559),DRSC08702,1.01e5,1.29e5,1.89e6,1.90e6,inactive
Tie (GeneID 38559),DRSC36693,,,,,inactive
Tie (GeneID 38559),DRSC36694,,,,,inactive
Sps1 (GeneID 36587),DRSC07549,1.37e6,9.78e5,1.87e6,1.96e6,inactive
AstC-R2 (GeneID 40019),DRSC23467,8.48e5,1.04e6,1.54e6,1.36e6,inactive
CG10029 (GeneID 40883),DRSC12498,66171,50670,9.58e5,1.00e6,inactive

The results go on.
Gene,DRSC id,"firefly reporter light, replicate 1","firefly reporter light, replicate 2","Renilla control light, replicate 1","Renilla control light, replicate 2",Outcome
Lint-1 (GeneID 32055),DRSC19822,1.61e5,1.06e5,1.23e6,1.13e6,inactive
Lint-1 (GeneID 32055),DRSC28176,5.60e5,3.83e5,1.86e6,1.81e6,inactive
CG7322 (GeneID 32880),DRSC20036,1.39e5,1.45e5,5.79e5,2.34e5,inactive
CG7322 (GeneID 32880),DRSC26735,4.36e5,3.80e5,5.98e5,6.61e5,inactive
Gr59a (GeneID 117485),DRSC21550,6.68e5,7.70e5,2.69e6,2.90e6,inactive
Mcad (GeneID 38864),DRSC09871,9.14e5,7.96e5,1.36e6,1.44e6,inactive
Mcad (GeneID 38864),DRSC25980,3.12e5,3.70e5,7.12e5,6.08e5,inactive
Dscam4 (GeneID 2769008),DRSC08913,2.97e5,3.77e5,1.77e5,1.58e5,inactive
Dscam4 (GeneID 2769008),DRSC10031,2.62e5,2.25e5,2.45e6,1.64e6,inactive
Dscam4 (GeneID 2769008),DRSC10329,1.96e5,1.63e5,1.52e6,1.24e6,inactive
Dscam4 (GeneID 2769008),DRSC10765,2.70e5,2.33e5,3.97e6,2.38e6,inactive
Dscam4 (GeneID 2769008),DRSC27460,2.54e5,2.19e5,6.75e5,8.16e5,inactive
Sgs4 (GeneID 31304),DRSC18715,4.37e5,4.53e5,3.55e6,2.85e6,inactive
Sgs4 (GeneID 31304),DRSC28964,6.60e5,3.10e5,1.22e6,6.14e5,inactive
CG1552 (GeneID 32035),DRSC19665,4.37e5,4.52e5,2.85e6,3.41e6,inactive
CG1552 (GeneID 32035),DRSC25533,6.76e5,6.34e5,1.06e6,8.41e5,inactive
Crtc (GeneID 39970),DRSC23130,4.79e5,5.11e5,1.53e6,1.68e6,inactive
Crtc (GeneID 39970),DRSC26174,3.30e5,3.21e5,5.85e5,4.62e5,inactive
Prosbeta4 (GeneID 34999),DRSC02603,1.53e5,1.42e5,1.68e6,1.35e6,inactive
mtrm (GeneID 38958),DRSC23076,4.81e5,5.05e5,1.92e6,2.43e6,inactive
CG9287 (GeneID 34194),DRSC03186,3.65e5,3.65e5,2.97e6,2.60e6,inactive
CG9287 (GeneID 34194),DRSC22790,5.92e5,9.17e5,1.65e6,1.97e6,inactive
FipoQ (GeneID 43475),DRSC15413,61063,72233,5.17e5,3.48e5,inactive
FipoQ (GeneID 43475),DRSC24515,6.46e5,6.34e5,5.51e5,5.60e5,inactive
CG13807 (GeneID 38290),DRSC08342,75261,1.03e5,9.89e5,1.00e6,inactive
CG13807 (GeneID 38290),DRSC28816,3.90e5,4.37e5,6.92e5,8.48e5,inactive
CG6424 (GeneID 37012),DRSC05936,1.22e6,1.30e6,2.25e6,1.88e6,inactive
CG6424 (GeneID 37012),DRSC28768,7.22e5,6.08e5,1.86e6,1.72e6,inactive
jet (GeneID 33705),DRSC03116,3.90e5,6.96e5,1.03e6,1.39e6,inactive
jet (GeneID 33705),DRSC26732,4.27e5,4.11e5,6.44e5,7.92e5,inactive
sima (GeneID 43580),DRSC23203,8.50e5,6.66e5,1.71e6,1.46e6,inactive
sima (GeneID 43580),DRSC28794,8.43e5,8.51e5,1.68e6,1.63e6,inactive
CG3253 (GeneID 37861),DRSC04350,4.35e5,4.84e5,1.87e6,2.13e6,active
CG3253 (GeneID 37861),DRSC29358,5.41e5,5.04e5,1.11e6,1.11e6,inactive
